The other results are listed elsewhere or left out.
Biological target: OsWRKY34 (Oryza sativa, UniProt Q0JBA9 1-250)
Assay: protein-binding microarray (RPBM); PBS, 2% BSA, 51.3 ng/ul salmon testes DNA, 50 uM zinc acetate, 200 nM TF, 25 C, 1 h; high values mean tight binding
Details: protein: recombinant; tags: N-terminal polyhistidine and DsRed monomer fusion (pET32a); label: CyDye5-dUTP incorporated in the synthesized complementary strand; 3' TTTTT single-stranded linker to array surface; dsDNA, one strand shown
How it was run: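 Binding signal here means per-feature fluorescence intensity in arbitrary units. The values were read on an Axon 4000B scanner after a custom Agilent array, double-stranded by primer extension with Cy5-dUTP, was incubated with 200 nM protein at 25 °C for 1 h in PBS with 2% BSA, salmon testes DNA and 50 µM zinc acetate, then washed. The proteins were transcription factors with an N-terminal polyhistidine tag and DsRed, expressed in E. coli BL21-CodonPlus and purified on Ni–NTA.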

By UniProt entry, the sequences of proteins in these tests, tags left out.
UniProt Q0JBA9, entry or part of it: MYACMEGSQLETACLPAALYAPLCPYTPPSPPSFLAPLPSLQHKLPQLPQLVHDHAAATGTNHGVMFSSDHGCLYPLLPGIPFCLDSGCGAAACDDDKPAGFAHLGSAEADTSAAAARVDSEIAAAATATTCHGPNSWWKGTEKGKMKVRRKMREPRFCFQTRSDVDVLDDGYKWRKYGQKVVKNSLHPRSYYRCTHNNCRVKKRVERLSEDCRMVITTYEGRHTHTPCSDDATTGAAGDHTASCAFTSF

Row | Sequence | binding signal
1 | TCACCTCTTCTGGCCCAACACGTTAACATTCTATTCTCACCGGAGTCACCTAGTGCAG | 9170 fluorescence intensity (a.u.)
2 | GTTGATTTCATTAGCGAGTTTACCCACAGCACAATAAACTCGGAGTCACCTAGTGCAG | 8510 fluorescence intensity (a.u.)
3 | GGTTATGTGCTTGTGTAGGCTTGATGGGTATTTGGGCCTTCGGAGTCACCTAGTGCAG | 9000 fluorescence intensity (a.u.)
4 | CAGGGAGAAGGGTGGCAGTCGTTGGGCGGCGGTGGTAGGTCGGAGTCACCTAGTGCAG | 10200 fluorescence intensity (a.u.)
5 | GCCCCACCCTGCAGCGACTCCGGCTCGCTCGAGCGAGACACGGAGTCACCTAGTGCAG | 8360 fluorescence intensity (a.u.)
6 | ATGTGGGCCTAAGGGCATTTTTGACATTTCACGCGATTTCCGGAGTCACCTAGTGCAG | 9440 fluorescence intensity (a.u.)
7 | TTTCTGTTTTTTTTGGCTCGTCATCGTTGGTTTCATATACCGGAGTCACCTAGTGCAG | 10700 fluorescence intensity (a.u.)
8 | CGGCGGCGGAGGAGGAGGAGGAGGAGGGCGCGGGGCGGCGCGGAGTCACCTAGTGCAG | 21700 fluorescence intensity (a.u.)
9 | ACAGTTTGACTTTGATCAAAGTCAAAACGTCTTGTAACCTCGGAGTCACCTAGTGCAG | 11600 fluorescence intensity (a.u.)
10 | AGGGGTTGTTTTGTGGATAATTCGACCTGTTAATGCTACCCGGAGTCACCTAGTGCAG | 9950 fluorescence intensity (a.u.)
11 | GAGTCTCGTTTCATCTCCATCTCCATCCGCGCGCGCGCGCCGGAGTCACCTAGTGCAG | 10200 fluorescence intensity (a.u.)
12 | TGAAATATGGTTTGCATAAAGTTTGCCATCCACGATATCCCGGAGTCACCTAGTGCAG | 8320 fluorescence intensity (a.u.)
13 | GCGCCTGCGTTCTTCCGTCCGCTTCGCCTCGGCCGCGCGCCGGAGTCACCTAGTGCAG | 8280 fluorescence intensity (a.u.)
14 | GCACCGAATCCCCATCCCCGCCGCTGTAAATCCCTTCGCGCGGAGTCACCTAGTGCAG | 8510 fluorescence intensity (a.u.)
15 | CTACTTTAGCATTAGTTTCTACTTTAGCATTAGTTTTCTGCGGAGTCACCTAGTGCAG | 8070 fluorescence intensity (a.u.)
16 | TTATATGTGGCCCAGATTTCCAACGCGGTTAAAGTGGGTGCGGAGTCACCTAGTGCAG | 8640 fluorescence intensity (a.u.)
17 | GAACTTAAATCGACTAGCCCACATCTTACGGTATTAGCCGCGGAGTCACCTAGTGCAG | 8620 fluorescence intensity (a.u.)
18 | GGACAACCGCTCGGTCTCATGAATCAGTTTAGTCTGGGACCGGAGTCACCTAGTGCAG | 8300 fluorescence intensity (a.u.)
19 | GTTGCCAGATCTGATGCTGATCCTGTTCCTGTTGCAAGAACGGAGTCACCTAGTGCAG | 9120 fluorescence intensity (a.u.)
20 | ATCCATTCAAAAAGTGGTCACATATACAGCCTGTGTGTTGCGGAGTCACCTAGTGCAG | 8070 fluorescence intensity (a.u.)
21 | GATTTTTCTTTTACCGCGTTGATGAATCGGATTCGTTCCGCGGAGTCACCTAGTGCAG | 8330 fluorescence intensity (a.u.)

No new results follow: entries from further up.
Row | Sequence | binding signal
17 | GAACTTAAATCGACTAGCCCACATCTTACGGTATTAGCCGCGGAGTCACCTAGTGCAG | 8620 fluorescence intensity (a.u.)
18 | GGACAACCGCTCGGTCTCATGAATCAGTTTAGTCTGGGACCGGAGTCACCTAGTGCAG | 8300 fluorescence intensity (a.u.)

The list continues.

Row | Sequence | binding signal
22 | ACTCCTATGAACCATTGCGCCTCACTGCCACACATATCGCCGGAGTCACCTAGTGCAG | 9380 fluorescence intensity (a.u.)
23 | TGATAGGAATCTCAACTTTTCGTAGTACATGTTTATACATCGGAGTCACCTAGTGCAG | 8240 fluorescence intensity (a.u.)
24 | TTTTCTTTTTTTCAATTTTTTTTACCTTTTCCCAGTTTTCCGGAGTCACCTAGTGCAG | 8990 fluorescence intensity (a.u.)
25 | TCTACCGGAATACTGTTACGCTGACGTAGACATGAGTAAGCGGAGTCACCTAGTGCAG | 14000 fluorescence intensity (a.u.)
26 | ATTTCCATGTTGTTATACTTGTGCTCCTGGCTGTAAAATACGGAGTCACCTAGTGCAG | 9410 fluorescence intensity (a.u.)
27 | AATTTGGGGTTGGTTGTCACATCAGATATACGGATACACACGGAGTCACCTAGTGCAG | 10100 fluorescence intensity (a.u.)
28 | CTGTATCTGTTCATGGTAAAATCAATCCGGATATTTCATCCGGAGTCACCTAGTGCAG | 9700 fluorescence intensity (a.u.)
29 | AGATCCCCTTTTTTCTCCTTGGCATTTGTGTTGCATTTGTCGGAGTCACCTAGTGCAG | 10300 fluorescence intensity (a.u.)
30 | CTCCACCTTCATCTCGGTTTTAAATTTTCCCGGCAAATGTCGGAGTCACCTAGTGCAG | 11700 fluorescence intensity (a.u.)
31 | CTCTGGTTGTTCCCACCCTCCCTCTCGCACGCACGGACGTCGGAGTCACCTAGTGCAG | 9390 fluorescence intensity (a.u.)
32 | ACCTAGCTTCCATGTTTGACCAATCAAATTAATTACCATTCGGAGTCACCTAGTGCAG | 11100 fluorescence intensity (a.u.)
33 | GGGGAAGGAGGATGGGGTTTTGTAATTCGGGATTCGGAGGCGGAGTCACCTAGTGCAG | 10800 fluorescence intensity (a.u.)
34 | GAGTAGATGTTGTGCTTGTGGGTTATCTGAGTTGGTTGGTCGGAGTCACCTAGTGCAG | 9410 fluorescence intensity (a.u.)
35 | CTTCGCCTCTCTCGTCTCGTCCGAGTTTCCGACCCGACCCCGGAGTCACCTAGTGCAG | 8090 fluorescence intensity (a.u.)
36 | TCAGCTCCTCCCTCTCTCCTGCTGCGTTGTTTGGTTGGGCCGGAGTCACCTAGTGCAG | 8250 fluorescence intensity (a.u.)
37 | ACGGTGCCGAACGAGCTTGGGGATGGGGACGGCGGCGGGGCGGAGTCACCTAGTGCAG | 10200 fluorescence intensity (a.u.)
38 | AACCAAACCCCACCACCACACAAACGCATGCGCGCGCGCTCGGAGTCACCTAGTGCAG | 8200 fluorescence intensity (a.u.)
39 | CTGTGTTTTCTATTTTTCTCTGTTTTACATCTATCTTCTTCGGAGTCACCTAGTGCAG | 19100 fluorescence intensity (a.u.)
40 | GATTTCCTCTCTAACTGTGTAATTAGTTTTTTCATTTATCCGGAGTCACCTAGTGCAG | 9550 fluorescence intensity (a.u.)
41 | AGGGTGTGTTTCGTTTTATGGCCATCTAAAGTCTAACCTTCGGAGTCACCTAGTGCAG | 10300 fluorescence intensity (a.u.)
42 | GTTAATTTACTATTCTGTTTTATTCTGGTTGTTGATAATACGGAGTCACCTAGTGCAG | 8570 fluorescence intensity (a.u.)

Reference: paper PMC7819943, “Rice protein-binding microarrays: a tool to detect cis-acting elements near promoter regions in rice”
